Results reported in patent publication EP1770089A1, “Pyranodibenzofuran derivatives with antifungal and antibacterial activity” (priority 2005, dated 2007).

Experiments:
Assay type in all cases: cell-based
L1210 cells = test: Cytotoxicity, MTA (Microculture Tetrazolium Assay) test; conditions: SI = IC50/MIC99, MIC99 used not specified
Description: The cytotoxicity of compounds 5, 9, and 10-21 was determined in L1210 cells using the MTA (Microculture Tetrazolium Assay) test.

Macrophages = test: Cytotoxicity, MTT test; conditions: SI = IC50/MIC99
Description: (§1) The cytotoxicity of compounds 9 and 16 was further assessed in various mammalian cell lines using the MTT test. RAW and A549 cell lines were maintained in RPMI 1640 medium without L-GLU supplemented with 10% Fetal calf serum (FCS), penicillin-streptomycin solution 1 % at 37 °C in air with 5 % CO2. VERO cell lines were maintained in D-MEM medium without L-GLU supplemented with 10% Fetal calf Serum (FCS), penicillin-streptomycin solution 1 % at 37 °C in air with 5 % CO2. Proliferating cells were seeded for 96-well microtitration plates at a density of 5. 10^5 cells/mL which were further incubated for 24 h at 37°C under 5 % CO2 in air before each assay. Various concentrations of solutions of 9 and 16 (10 µl/well) in 1.25 % dimethylsulfoxide (DMSO)) were added and then incubated for 24 hours under the above conditions. At the end of incubation, 20 µl of dimethylthiazolyl diphenyl tetrazolium bromide solution (MTT) (7.5 mg/ml) was then added into each well and further incubated for 4 h at 37°C to allow the formation of formazan. The crystals of formazan were then dissolved with 100 µl of an acidic solution (Sodium dodecyl sulfate (SDS) 10 %, HCl 10 mM). The optical density of each well was measured at 595 nm using a Multiwell plate reader. The values given are the average means of six replicates. The 50 % inhibition concentration was determined by curve fitting.

VERO cells = test: Cytotoxicity, MTT test; conditions: SI = IC50/MIC99
Description: as §1

With CC1(C)Oc2cc3c(cc2[C@H](O)[C@@H]1O)oc1ccccc13 (racemic) [Compound 11, (±)cis-3,4-dihydro-3,4-dihydroxy-2,2-dimethyl-2H-benzofuro[2,3-g]-[1]-benzopyran] the SI (L1210 cells) was under 0.4332.

CC1(C)Oc2ccc3oc4ccccc4c3c2[C@@H](O)[C@H]1O (racemic) [Compound 12, (±)cis-1,2-dihydro-1,2-dihydroxy-3,3-dimethyl-3H-benzofuro[3,2-f][1]benzopyran] gave an SI (L1210 cells) of under 0.0013.

Compound CC1(C)Oc2ccc3oc4ccccc4c3c2C(=O)C1O (racemic) [Compound 13, (±)2,3-dihydro-2-hydroxy-3,3-dimethyl-1H-benzofuro[3,2-f][1]benzopyran-1-one] has an SI (L1210 cells) of under 0.005045.

With CC(=O)CC1(O)C(=O)c2c(ccc3oc4ccccc4c23)OC1(C)C (racemic) [Compound 14, (±)2,3-dihydro-2-hydroxy-3,3-dimethyl-2-(2-oxopropyl)-1Hbenzofuro[3,2f][1]benzopyran-1-one] the SI (L1210 cells) was 0.6327.

In the case of CC1(C)Oc2ccc3oc4ccccc4c3c2[C@@H](O)[C@@H]1O (racemic) [Compound 15, (±)trans-1,2,-dihydro-1,2-dihydroxy-3,3-dimethyl-3H-benzofuro[3,2-f][1]benzopyran], the SI (L1210 cells) is reported as under 0.01234.

For CC(=O)O[C@H]1c2cc3oc4ccccc4c3cc2OC(C)(C)[C@H]1OC(C)=O (racemic) [Compound 17, (±)cis-3,4-diacetoxy-3,4-dihydro-2,2-dimethyl-2H-benzofuro[2,3-g]-[1]-benzopyran], the SI (L1210 cells) was under 0.008521.

Compound CC(=O)O[C@@H]1c2c(ccc3oc4ccccc4c23)OC(C)(C)[C@@H]1OC(C)=O (racemic) [Compound 18, (±)cis-1,2-diacetoxy-1,2-dihydro-3,3-dimethyl-3H-benzofuro[3,2-f][1]benzopyran] has an SI (L1210 cells) of under 0.009348.

CC(=O)O[C@@H]1c2c(ccc3oc4ccccc4c23)OC(C)(C)[C@H]1OC(C)=O (racemic) [Compound 19, (±)trans-1,2,-diacetoxy-1,2-dihydro-3,3-dimethyl-3H-benzofuro[3,2-f][1]benzopyran] showed an SI (L1210 cells) of under 0.005501.

Work on CC(=O)OC1C(=O)c2c(ccc3oc4ccccc4c23)OC1(C)C (racemic) [Compound 20, (±)2-acetoxy-2,3-dihydro-2-hydro-3,3-dimethyl-1H-benzofuro[3,2-f][1]benzopyran-1-one] yielded an SI (L1210 cells) of under 0.0285.

In the case of CC1(C)C=Cc2c(ccc3oc4ccccc4c23)O1 [Compound 9, 3,3-dimethyl-3H-benzofuro[3,2-f][1]benzopyran], the SI (L1210 cells) is reported as over 2.8, the SI (Macrophages) is reported as 15 and the SI (VERO cells) is reported as 15.

With C=C1Oc2ccc3oc4ccccc4c3c2C1(C)C [Compound 10, 1,2-dihydro-1,1-dimethyl-2-methylenebenzofuro[5,4-b]benzofuran] the SI (L1210 cells) was under 0.06175.

With CC1(C)CCc2c(ccc3oc4ccccc4c23)O1 [Compound 16, 1,2-dihydro-3,3-dimethyl-3H-benzofuro[3,2-f][1]benzopyran] the SI (Macrophages) was over 20 and the SI (VERO cells) was 20.

NNC(=O)c1ccncc1 [INH, isoniazid, reference compound] showed an SI (L1210 cells) of 2.8.

“(±)cis-4H-3a,4,12b-trihydro-2,2-dimethyl-1,3-dioxolo[4,5-h]benzofuro[3,2-g]benzopyran [Compound 21]” showed an SI (L1210 cells) of under 0.01285.
